Measurements taken from article PMC12431657, “Discovery and mechanistic insights of dibenzoylmethane as a broad spectrum inhibitor of coronavirus” (PLOS Pathogens, 2025).
Counter-ions that a name gives are not always drawn. Like-named read-outs stand apart in the source and are kept apart here. Out of some 3,300 compounds screened, about 95 (3%) showed an effect of 50% or more. The list shows a part of the results.

System: HCoV-229E
Parameters: species or system Huh-7; HTS, protection from HCoV-229E induced cell death, luminescent cell viability (CellCounting-Lite 2.0), inhibition rate
Details: 24 h post infection, 1 h compound pre-incubation, 10 µM, inhibitor

**Q.** With `COc1cc(/C=C/C(=O)O)ccc1O` [Ferulic acid (sodium)] as the compound, how does the “229E Inhibition rate” value (229E Inhibition rate, 24 h) read?
**A.** 36.8%

**Q.** For `CC(/C=C/C=C(\C)C(=O)O)=C\C=C\C=C(C)\C=C\C=C(/C)C(=O)O` [Crocetin], which “229E Inhibition rate” value (229E Inhibition rate, 24 h) is on record?
**A.** 7.7%

**Q.** How did the “229E Inhibition rate” value turn out when `OC[C@H]1O[C@@H](Oc2cc(O)ccc2/C=C/c2cc(O)cc(O)c2)[C@H](O)[C@@H](O)[C@@H]1O` [Oxyresveratrol 2-O-β-D-glucopyranoside] was run?
**A.** 17.2%

**Q.** For `O=C(Nc1ccccc1)Nc1ccnc(Cl)c1` [Forchlorfenuron], which “229E Inhibition rate” value is on record?
**A.** 13.7%

**Q.** How did the “229E Inhibition rate” value (229E Inhibition rate, 24 h) turn out when `COc1ccc(/C=C/C(=O)O)cc1` [4-Methoxycinnamic acid] was run?
**A.** 0%

**Q.** For `CCCCC1OC(=O)C2=CCCCC21` (stereo not drawn) [Sedanolide], which “229E Inhibition rate” value is on record?
**A.** 38.5%

**Q.** For `C[C@H](CCC(=O)O)[C@H]1CC[C@H]2[C@@H]3C=CC4=CC(=O)CC[C@]4(C)[C@H]3CC[C@]12C` [3-Oxo-4,6-choladien-24-oic acid], which “229E Inhibition rate” value is on record?
**A.** 23.7%

**Q.** For `C[C@H](CCC(=O)NCC(=O)O)[C@H]1CC[C@H]2[C@@H]3CC[C@@H]4C[C@H](O)CC[C@]4(C)[C@H]3C[C@H](O)[C@]12C` [Glycodeoxycholic acid (monohydrate)], which “229E Inhibition rate” value (229E Inhibition rate, 24 h) is on record?
**A.** 0%

**Q.** Which “229E Inhibition rate” value does the source give for `O=c1cc(-c2ccc(O)c(O)c2)oc2cc(O)cc(O)c12` [Luteolin] here?
**A.** 0%

**Q.** How did the “229E Inhibition rate” value turn out when `CN1CC(=O)NC1=N` [Creatinine] was run?
**A.** 19.7%

**Q.** How did the “229E Inhibition rate” value turn out when `O=c1c(O[C@@H]2O[C@H](CO)[C@@H](O)[C@H](O)[C@H]2O[C@@H]2O[C@H](CO)[C@@H](O)[C@H](O)[C@H]2O)c(-c2ccc(O)cc2)oc2cc(O)cc(O)c12` [Kaempferol 3-O-sophoroside] was run?
**A.** 45.9%

**Q.** For `C=C(C)C1CC=C(C)C(O)C1` (mixture of isomers) [Carveol], which “229E Inhibition rate” value is on record?
**A.** 14.5%

**Q.** How did the “229E Inhibition rate” value turn out when `C=C[C@@]1(C)CC[C@H]2C(=CC[C@@H]3[C@]2(C)CCC[C@@]3(C)C(=O)O)C1` [Isopimaric acid] was run?
**A.** 12.8%

**Q.** With `C=C1[C@@H](O)[C@]2(O)OC[C@]34[C@H]2[C@@]2(C)[C@H](O)C(=O)C=C(C)[C@@H]2C[C@H]3OC(=O)[C@H](O)[C@@]14O` [Eurycomanone] as the compound, how does the “229E Inhibition rate” value read?
**A.** 53.4%

**Q.** `COc1cccc(CCc2cc(O)cc(OC)c2)c1` [3'-O-Methylbatatasin III] was tested. Which “229E Inhibition rate” value did it give?
**A.** 10.1%

**Q.** How did the “229E Inhibition rate” value (229E Inhibition rate, 24 h) turn out when `N[C@@H](CS)C(=O)O` [L-Cysteine (hydrochloride hydrate)] was run?
**A.** 18.1%

**Q.** For `O=P(O)(O)O[C@H]1[C@H](OP(=O)(O)O)[C@@H](OP(=O)(O)O)[C@H](OP(=O)(O)O)[C@@H](OP(=O)(O)O)[C@H]1OP(=O)(O)O` [Phytic acid (potassium)], which “229E Inhibition rate” value (229E Inhibition rate, 24 h) is on record?
**A.** 9.9%

**Q.** Which “229E Inhibition rate” value does the source give for `COc1cc(O)cc(CCc2ccc(O)c(OC)c2)c1` [Gigantol] here?
**A.** 45.6%

**Q.** Which “229E Inhibition rate” value does the source give for `N[C@H](CO)C(=O)O` [D-Serine] here?
**A.** 8.5%

**Q.** Which “229E Inhibition rate” value does the source give for `CCNC(=O)CC[C@H](N)C(=O)O` [L-Theanine] here?
**A.** 8.3%

**Q.** For `OC[C@H]1O[C@@H]2O[C@H]3[C@H](O)[C@@H](O)[C@@H](O[C@H]4[C@H](O)[C@@H](O)[C@@H](O[C@H]5[C@H](O)[C@@H](O)[C@@H](O[C@H]6[C@H](O)[C@@H](O)[C@@H](O[C@H]7[C@H](O)[C@@H](O)[C@@H](O[C@H]8[C@H](O)[C@@H](O)[C@@H](O[C@H]1[C@H](O)[C@H]2O)O[C@@H]8CO)O[C@@H]7CO)O[C@@H]6CO)O[C@@H]5CO)O[C@@H]4CO)O[C@@H]3CO` [β-Cyclodextrin], which “229E Inhibition rate” value is on record?
**A.** 13.5%

**Q.** Which “229E Inhibition rate” value does the source give for `CC(C)=CCCC(C)CC=O` (stereo not drawn) [Citronellal] here?
**A.** 20.2%

**Q.** With `C[C@@H]1[C@H](O)[C@@H](C)/C=C/C=C/C=C/C=C/C=C/C=C/C=C/[C@H](O[C@@H]2O[C@H](C)[C@@H](O)[C@H](N)[C@@H]2O)C[C@@H]2O[C@](O)(C[C@@H](O)C[C@@H](O)[C@H](O)CC[C@@H](O)C[C@@H](O)CC(=O)O[C@H]1C)C[C@H](O)[C@H]2C(=O)O` [amphotericin B] as the compound, how does the “229E Inhibition rate” value read?
**A.** 26.6%

**Q.** How did the “229E Inhibition rate” value turn out when `CC(=O)CCc1ccc(O)cc1` [Raspberry ketone] was run?
**A.** 7.5%

**Q.** With `CC1=CC[C@@H](C(C)(C)O)CC1` [(-)-α-Terpineol] as the compound, how does the “229E Inhibition rate” value (229E Inhibition rate, 24 h) read?
**A.** 35.7%

**Q.** How did the “229E Inhibition rate” value (229E Inhibition rate, 24 h) turn out when `CC[C@H]1OC(=O)C[C@@H](O)[C@H](C)[C@@H](O[C@@H]2O[C@H](C)[C@@H](O[C@H]3C[C@@](C)(O)[C@@H](O)[C@H](C)O3)[C@H](N(C)C)[C@H]2O)[C@@H](CC=O)C[C@@H](C)C(=O)/C=C/C(C)=C/[C@@H]1CO[C@@H]1O[C@H](C)[C@@H](O)[C@@H](OC)[C@H]1OC` [Tylosin] was run?
**A.** 21.2%

**Q.** How did the “229E Inhibition rate” value turn out when `O=C1CCCc2c(O)cccc21` [5-Hydroxy-1-tetralone] was run?
**A.** 49.2%

**Q.** Which “229E Inhibition rate” value does the source give for `C=C1C(=O)O[C@@H]2/C=C(/C)C[C@H]3C=C(C[C@H](OC(=O)/C(C)=C\C)[C@@H]12)C(=O)O3` [Scabertopin] here?
**A.** 0%

**Q.** Which “229E Inhibition rate” value does the source give for `CC(C)(O[C@@H]1O[C@H](CO)[C@@H](O)[C@H](O)[C@H]1O)[C@H]1Cc2cc3ccc(=O)oc3cc2O1` [Nodakenin] here?
**A.** 11.2%

**Q.** For `COc1cc2ccc(=O)oc2c(O[C@@H]2O[C@H](CO)[C@@H](O)[C@H](O)[C@H]2O)c1O` [Fraxin], which “229E Inhibition rate” value is on record?
**A.** 10.9%

**Q.** `O=C1C[C@@](O)(C(=O)O)[C@@H](C(=O)O)O1` [(-)-Hydroxycitric acid lactone] was tested. Which “229E Inhibition rate” value did it give?
**A.** 7.8%

**Q.** With `CC(=O)O[C@@H](C[C@@H](C)C1=C2C[C@H](O)[C@H]3[C@@]4(C)CCC(=O)C(C)(C)[C@@H]4CC[C@]3(C)[C@@]2(C)CC1=O)[C@H]1OC1(C)C` [Alisol C 23-acetate] as the compound, how does the “229E Inhibition rate” value read?
**A.** 8.3%

**Q.** How did the “229E Inhibition rate” value turn out when `CCCCC/C=C/C(=O)O` [(E)-Oct-2-enoic acid] was run?
**A.** 21.4%

**Q.** For `CC(O)CC(=O)O` (stereo not drawn) [3-Hydroxybutyric acid], which “229E Inhibition rate” value is on record?
**A.** 11.2%

**Q.** How did the “229E Inhibition rate” value turn out when `O=C(O)CCCCCCCCCCCO` [12-Hydroxydodecanoic acid] was run?
**A.** 18.7%

**Q.** Which “229E Inhibition rate” value does the source give for `CC1(C)CC[C@]2(C(=O)O)CC[C@]3(C)C(=CC[C@@H]4[C@@]5(C)CC[C@H](O[C@@H]6O[C@H](C(=O)O)[C@@H](O)[C@H](O[C@@H]7OC[C@@H](O)[C@H](O)[C@H]7O[C@@H]7O[C@H](CO)[C@@H](O)[C@H](O)[C@H]7O)[C@H]6O)C(C)(C)[C@@H]5CC[C@]43C)[C@@H]2C1` [Oleanolic acid-3-O-glucosyl(1-2)xylyl(1-3)glucosiduronic acid] here?
**A.** 6.1%

**Q.** With `CCCCCCCCCCCCCCCC(=O)NCCO` [Palmitoylethanolamide] as the compound, how does the “229E Inhibition rate” value read?
**A.** 7.7%

**Q.** How did the “229E Inhibition rate” value turn out when `O=C1OC[C@H]2OC(O)[C@H](O)[C@@H](O)[C@@H]2OC(=O)c2cc(O)c(O)c(O)c2-c2c(O)c(O)c3oc(=O)c4c(c(O)c(O)c5oc(=O)c2c3c54)-c2c1cc(O)c(O)c2O` (mixture of isomers) [Punicalin] was run?
**A.** 14.2%

**Q.** How did the “229E Inhibition rate” value turn out when `CCc1ccc(O)cc1O` [4-Ethylresorcinol] was run?
**A.** 19.1%

**Q.** With `CC(C)=CCC[C@](C)(O[C@@H]1O[C@H](CO)[C@@H](O)[C@H](O)[C@H]1O)[C@H]1CC[C@]2(C)[C@@H]1[C@H](O)C[C@@H]1[C@@]3(C)CC[C@H](O[C@@H]4O[C@H](CO)[C@@H](O)[C@H](O)[C@H]4O)C(C)(C)[C@@H]3CC[C@]12C` [Ginsenoside F2] as the compound, how does the “229E Inhibition rate” value read?
**A.** 9.4%

**Q.** Which “229E Inhibition rate” value does the source give for `CC/C=C\CCO` [cis-3-Hexen-1-ol] here?
**A.** 49.8%

**Q.** Which “229E Inhibition rate” value does the source give for `COC(=O)C(O)CC(C)C` (stereo not drawn) [Methyl 2-hydroxy-4-methylvalerate] here?
**A.** 12.9%

**Q.** `O=c1c(O)c(-c2ccc(O)c(O)c2)oc2cc(O[C@@H]3O[C@H](CO)[C@@H](O)[C@H](O)[C@H]3O)c(O)c(O)c12` [Quercetagitrin] was tested. Which “229E Inhibition rate” value did it give?
**A.** 11%

**Q.** Which “229E Inhibition rate” value does the source give for `CCCCCCCC/C=C\CCCCCCCCCCCCCC(=O)O` [Nervonic acid] here?
**A.** 18.2%

**Q.** With `CCOCC(=O)O` [Ethoxyacetic acid] as the compound, how does the “229E Inhibition rate” value read?
**A.** 23.2%

**Q.** How did the “229E Inhibition rate” value turn out when `CC(C)=CC(=O)O[C@H]1Cc2cc3ccc(=O)oc3cc2OC1(C)C` [Decursin] was run?
**A.** 2.9%

**Q.** Which “229E Inhibition rate” value does the source give for `CC=C1[C@H](O[C@@H]2O[C@H](CO)[C@@H](O)[C@H](O)[C@H]2O)OC=C(C(=O)OC)[C@H]1CC(=O)OC[C@H]1O[C@@H](OCCc2ccc(O)cc2)[C@H](O)[C@@H](O)[C@@H]1O` (stereo in doubt) [Specnuezhenide] here?
**A.** 7.4%

**Q.** How did the “229E Inhibition rate” value turn out when `CSCCC(=O)O` [3-(Methylthio)propionic acid] was run?
**A.** 10.9%

**Q.** With `C[C@@H]1O[C@@H](OCCC(=O)O)[C@H](O)C[C@H]1O` [Ascr#5] as the compound, how does the “229E Inhibition rate” value read?
**A.** 9%

**Q.** For `CC(=O)[C@H]1CC[C@H]2[C@@H]3CC=C4C[C@@H](OS(=O)(=O)O)CC[C@]4(C)[C@H]3CC[C@]12C` [Pregnenolone monosulfate (sodium)], which “229E Inhibition rate” value is on record?
**A.** 55.9%

**Q.** How did the “229E Inhibition rate” value turn out when `O=c1cc(-c2ccc(O)c(O)c2)oc2c([C@@H]3O[C@H](CO)[C@@H](O)[C@H](O)[C@H]3O[C@H]3O[C@@H](CO)[C@@H](O)[C@@H](O)[C@@H]3O)c(O)cc(O)c12` [2"-O-beta-L-galactopyranosylorientin] was run?
**A.** 6.8%

**Q.** Which “229E Inhibition rate” value does the source give for `COc1c(O[C@@H]2O[C@H](CO)[C@@H](O)[C@H](O)[C@H]2O)cc2occ(-c3ccc(O)cc3)c(=O)c2c1O` [Tectoridin] here?
**A.** 11.2%

**Q.** Which “229E Inhibition rate” value does the source give for `C=CC1(C)CCC(C(C)(C)O)O1` (stereo not drawn) [Linalool oxide] here?
**A.** 6.4%

**Q.** For `COc1cc(OC)c2c(=O)cc(-c3ccc(OC)c(OC)c3)oc2c1` [5,7,3',4'-Tetramethoxyflavone], which “229E Inhibition rate” value is on record?
**A.** 18.2%

**Q.** How did the “229E Inhibition rate” value turn out when `O=c1c2ccccc2oc2ccccc12` [Xanthone] was run?
**A.** 16.6%

**Q.** With `O=C(O)C/C=C/CC(=O)O` [Trans-2-butene-1,4-dicarboxylic acid] as the compound, how does the “229E Inhibition rate” value read?
**A.** 11.8%

**Q.** For `NC(COP(=O)(O)O)C(=O)O` (racemic) [DL-O-Phosphoserine], which “229E Inhibition rate” value is on record?
**A.** 13.2%
